Experimental data reported in publication PMC7375649, “Varicella zoster virus encodes a viral decoy RHIM to inhibit cell death” (PLoS Pathogens, 2020).

Experiments:
[1] = target: T1, YPet-ZBP1_(170-355) (human) (UniProt Q9H171); experiment: single molecule fluorescence confocal spectroscopy (two-colour coincidence); proteins alone or one mCherry-tagged and one YPet-tagged protein mixed, diluted out of 8 M urea to 0.35-0.7 uM in 25 mM NaH2PO4, 150 mM NaCl, 0.5 mM DTT, pH 7.4; room temperature; 488 and 561 nm lasers; both …
T1 sequence: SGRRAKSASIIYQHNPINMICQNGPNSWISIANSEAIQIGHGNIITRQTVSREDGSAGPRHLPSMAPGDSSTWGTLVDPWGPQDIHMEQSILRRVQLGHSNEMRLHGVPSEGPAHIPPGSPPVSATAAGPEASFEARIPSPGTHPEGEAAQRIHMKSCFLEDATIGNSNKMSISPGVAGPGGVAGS

[2] = target: T1, YPet-ZBP1_(170-355) (human); experiment: sodium dodecyl sulfate agarose gel electrophoresis (SDS-AGE); as a8, but assembled samples incubated with 2% SDS at room temperature for 10 min before electrophoresis; both purified
[3] = target: T1, YPet-ZBP1_(170-355) (human); experiment: sodium dodecyl sulfate agarose gel electrophoresis (SDS-AGE); 5 uM per protein, alone or combined, dialysed from 8 M urea against assembly buffer overnight; incubated with water for 10 min before electrophoresis; monomer controls kept in 8 M urea; fluorescence imaging; both purified

Substance	binding [1]	binding [2]	binding [3]
ORF20_(1-114)mut-mCherry (Varicella zoster virus (strain Dumas)) (domain or fragment)	binds		
Ub-ORF20_(1-114)mut (Varicella zoster virus (strain Dumas)) (domain or fragment)		no binding (only incubation with 2% SDS for 10 min)	binds

These are yes or no findings as the source states them, for the method shown. For part of these data: Binding can be weak; no strength is given.
